1 molecule from article PMC4741836 can be followed below.

Chains of the proteins cited; added tags and fusions are not shown.
UniProt Q15554: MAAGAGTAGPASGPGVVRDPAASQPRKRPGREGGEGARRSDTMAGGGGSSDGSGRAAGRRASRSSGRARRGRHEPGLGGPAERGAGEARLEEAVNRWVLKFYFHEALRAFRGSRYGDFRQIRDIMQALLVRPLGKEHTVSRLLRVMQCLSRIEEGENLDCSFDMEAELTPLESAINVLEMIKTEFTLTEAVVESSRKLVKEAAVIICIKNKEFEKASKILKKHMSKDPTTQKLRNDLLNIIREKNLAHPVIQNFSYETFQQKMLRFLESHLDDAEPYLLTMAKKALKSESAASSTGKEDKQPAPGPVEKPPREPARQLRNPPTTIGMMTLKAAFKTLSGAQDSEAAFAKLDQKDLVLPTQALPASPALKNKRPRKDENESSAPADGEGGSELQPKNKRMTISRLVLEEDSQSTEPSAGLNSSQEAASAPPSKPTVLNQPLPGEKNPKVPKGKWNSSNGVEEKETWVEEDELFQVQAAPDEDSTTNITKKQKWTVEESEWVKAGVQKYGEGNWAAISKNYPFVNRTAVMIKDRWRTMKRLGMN

These are yes or no findings as the source states them, for the method shown. In cells and extracts the contact can be indirect. Some results given as binding are weak or reduced against the parent protein; the word gives no strength.

For the assay, the target named is telomere repeat binding factor 2 (TRF2) (human) (UniProt Q15554). Description: co-IP; unpublished observations; cells, antibodies and conditions not told.

B1: heregulin isoform β2 (HRGβ2) (protein, UniProt Q02297-7 20-637)
chain: SGKKPESAAGSQSPALPPRLKEMKSQESAAGSKLVLRCETSSEYSSLRFKWFKNGNELNRKNKPQNIKIQKKPGKSELRINKASLADSGEYMCKVISKLGNDSASANITIVESNEIITGMPASTEGAYVSSESPIRISVSTEGANTSSSTSTSTTGTSHLVKCAEKEKTFCVNGGECFMVKDLSNPSRYLCKCPNEFTGDRCQNYVMASFYKAEELYQKRVLTITGICIALLVVGIMCVVAYCKTKKQRKKLHDRLRQSLRSERNNMMNIANGPHHPNPPPENVQLVNQYVSKNVISSEHIVEREAETSFSTSHYTSTAHHSTTVTQTPSHSWSNGHTESILSESHSVIVMSSVENSRHSSPTGGPRGRLNGTGGPRECNSFLRHARETPDSYRDSPHSERYVSAMTTPARMSPVDFHTPSSPKSPPSEMSPPVSSMTVSMPSMAVSPFMEEERPLLLVTPPRLREKKFDHHPQQFSSFHHNPAHDSNSLPASPLRIVEDEEYETTQEYEPAQEPVKKLANSRRAKRTKPNGHIANRLEVDSNTSSQSSNSESETEDERVGEDTPFLGIQNPLAASLEATPAFRLADSRTNPAGRFSTQEEIQARLSSVIANQDPIAV
Consider B1, for which the binding result was “binds”.
